Measured values published in publication PMC4196186.
These are yes or no findings as the source states them, for the method shown. Binding seen in cells or lysates may run through a third protein. Some entries that bind do so weakly or less than the wild type.

By UniProt entry, the sequences of proteins in these tests, tags left out.
UniProt Q9H4L4: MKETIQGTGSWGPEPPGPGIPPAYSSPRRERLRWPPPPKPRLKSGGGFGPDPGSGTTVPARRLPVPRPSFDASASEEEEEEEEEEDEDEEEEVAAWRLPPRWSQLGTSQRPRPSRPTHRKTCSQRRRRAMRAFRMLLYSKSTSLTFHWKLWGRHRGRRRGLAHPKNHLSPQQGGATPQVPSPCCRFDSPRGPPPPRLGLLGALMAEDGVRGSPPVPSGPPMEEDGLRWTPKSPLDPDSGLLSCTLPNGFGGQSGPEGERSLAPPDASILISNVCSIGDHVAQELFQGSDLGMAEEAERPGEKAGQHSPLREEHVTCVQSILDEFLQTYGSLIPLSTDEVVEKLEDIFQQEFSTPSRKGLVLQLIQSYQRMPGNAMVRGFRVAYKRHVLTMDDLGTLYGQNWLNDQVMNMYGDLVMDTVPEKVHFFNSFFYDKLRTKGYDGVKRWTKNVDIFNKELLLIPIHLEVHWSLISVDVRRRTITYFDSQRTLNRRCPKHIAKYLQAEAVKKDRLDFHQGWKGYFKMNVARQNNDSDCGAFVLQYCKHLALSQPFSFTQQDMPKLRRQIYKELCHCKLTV

Columns and labels:
[1] = target: T1, FOXC2 (forkhead box C2; mesenchyme forkhead 1), exogenous, transfected (human) (UniProt Q99958); experiment: co-IP; exogenous: HEK293T cells co-transfected with two plasmids; bait not stated
T1 sequence: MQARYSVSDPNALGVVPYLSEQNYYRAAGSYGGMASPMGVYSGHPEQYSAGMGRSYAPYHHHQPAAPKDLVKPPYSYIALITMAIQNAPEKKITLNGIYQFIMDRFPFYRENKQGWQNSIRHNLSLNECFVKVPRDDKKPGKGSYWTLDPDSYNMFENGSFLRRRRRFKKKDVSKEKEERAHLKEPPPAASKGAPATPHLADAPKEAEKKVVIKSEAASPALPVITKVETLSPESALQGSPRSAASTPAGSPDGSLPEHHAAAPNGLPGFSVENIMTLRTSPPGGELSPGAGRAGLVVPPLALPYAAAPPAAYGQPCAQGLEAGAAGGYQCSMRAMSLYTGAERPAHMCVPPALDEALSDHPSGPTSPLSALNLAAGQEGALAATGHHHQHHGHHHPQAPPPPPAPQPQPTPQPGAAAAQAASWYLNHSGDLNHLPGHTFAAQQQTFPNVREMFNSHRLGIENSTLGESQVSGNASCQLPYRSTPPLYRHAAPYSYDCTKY

[2] = target: T2, FOXC2, endogenous in MGC803 cells (human (endogenous in MGC803)) (UniProt Q99958); experiment: co-IP; endogenous proteins in MGC803 cells; bait not stated
T2 sequence: T1 sequence

| binding [1] | binding [2] | Substance |
| --- | --- | --- |
| binds | – | SENP3 (sentrin/SUMO2/3-specific protease), exogenous, transfected (from UniProt Q9H4L4 1-574) (enzyme) |
| – | binds | SENP3, endogenous in MGC803 cells (from UniProt Q9H4L4 1-574) (enzyme) |
